These are yes or no findings as the source states them, for the method shown. For some of these results: A result given as binding can be weak or reduced; the word gives no strength. For some of these results: Tags and fused reporters may be left off the sequences shown. For some of these results: In cells and extracts the contact can be indirect.

The target of experiment [1] is T1, RFP-Caprin2(245–1128) (human (HeLa cell cDNA library)) (UniProt Q6IMN6).
T1 sequence: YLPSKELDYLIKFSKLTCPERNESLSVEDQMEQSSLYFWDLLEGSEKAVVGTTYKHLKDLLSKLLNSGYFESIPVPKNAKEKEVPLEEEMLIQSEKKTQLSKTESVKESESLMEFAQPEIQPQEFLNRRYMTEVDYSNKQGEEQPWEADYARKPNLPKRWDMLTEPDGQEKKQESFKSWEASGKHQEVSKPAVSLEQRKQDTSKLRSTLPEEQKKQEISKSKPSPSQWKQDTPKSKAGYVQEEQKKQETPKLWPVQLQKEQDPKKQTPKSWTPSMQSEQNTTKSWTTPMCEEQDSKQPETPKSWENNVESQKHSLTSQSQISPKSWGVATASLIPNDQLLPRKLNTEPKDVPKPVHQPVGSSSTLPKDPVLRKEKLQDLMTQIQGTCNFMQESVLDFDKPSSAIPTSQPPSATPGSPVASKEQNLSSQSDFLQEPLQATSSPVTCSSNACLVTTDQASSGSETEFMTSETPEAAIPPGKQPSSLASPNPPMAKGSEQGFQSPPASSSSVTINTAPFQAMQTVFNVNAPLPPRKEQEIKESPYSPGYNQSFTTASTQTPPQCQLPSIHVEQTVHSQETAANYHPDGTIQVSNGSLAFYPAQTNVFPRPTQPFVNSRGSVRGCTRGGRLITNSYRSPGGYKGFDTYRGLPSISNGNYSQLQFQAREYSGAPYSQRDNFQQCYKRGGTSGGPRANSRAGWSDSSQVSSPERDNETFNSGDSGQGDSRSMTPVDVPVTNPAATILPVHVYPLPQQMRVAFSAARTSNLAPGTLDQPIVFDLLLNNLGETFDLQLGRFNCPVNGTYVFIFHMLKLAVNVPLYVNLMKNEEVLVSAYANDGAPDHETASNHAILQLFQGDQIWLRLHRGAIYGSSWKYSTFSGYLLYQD
Briefly: co-IP; HEK 293T co-transfected for 24 h; lysis in 20 mM Tris-HCl, 130 mM NaCl, 10% glycerol, 1% Triton X-100, 2 mM EDTA; rabbit anti-RFP antibodies on protein G Sepharose, overnight 4°C; blot with anti-Cpn1027.

In experiment [2] the target is T2, GST-Caprin2(245–1128) (human (HeLa cell cDNA library)) (UniProt Q6IMN6).
T2 sequence: T1 sequence
Briefly: pull-down; GST fusion immobilised on glutathione-agarose beads, incubated overnight at 4°C with lysates of transfected HEK 293T cells (1% Triton X-100 buffer); washed three times with PBS; Western blot; only the target purified. (A western blot detects proteins with antibodies after separation by electrophoresis.)

Experiment [3] concerns the target T3, GST-Caprin2(245–905) (human (HeLa cell cDNA library)) (UniProt Q6IMN6).
T3 sequence: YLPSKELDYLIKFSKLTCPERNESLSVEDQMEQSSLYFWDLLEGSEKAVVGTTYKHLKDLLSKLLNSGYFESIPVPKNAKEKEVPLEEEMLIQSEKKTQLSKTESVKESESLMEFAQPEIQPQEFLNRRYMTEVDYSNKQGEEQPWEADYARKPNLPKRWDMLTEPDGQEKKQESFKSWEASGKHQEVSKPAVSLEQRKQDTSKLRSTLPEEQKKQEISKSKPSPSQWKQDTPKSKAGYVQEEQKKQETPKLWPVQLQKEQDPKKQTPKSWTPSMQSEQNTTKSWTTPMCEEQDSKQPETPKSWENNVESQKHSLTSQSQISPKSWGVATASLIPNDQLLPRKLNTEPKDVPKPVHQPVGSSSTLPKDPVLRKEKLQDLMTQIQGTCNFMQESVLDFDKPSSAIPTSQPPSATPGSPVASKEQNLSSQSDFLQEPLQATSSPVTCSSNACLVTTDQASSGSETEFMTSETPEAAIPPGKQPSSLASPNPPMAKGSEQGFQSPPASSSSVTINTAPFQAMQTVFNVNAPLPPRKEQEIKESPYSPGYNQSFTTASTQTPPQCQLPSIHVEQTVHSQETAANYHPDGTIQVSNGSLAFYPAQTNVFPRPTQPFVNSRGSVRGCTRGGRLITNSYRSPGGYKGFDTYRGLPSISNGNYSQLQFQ
Briefly: ELISA; GST fusions from bacterial lysates immobilised on glutathione-coated 96-well plates, washed and blocked; 1 μg purified Cpn1027(210–527) per well; detected with anti-Cpn1027 mAb IE6 and HRP anti-mouse IgG, OD 405 nm; both purified. A general note: ELISA stands for enzyme-linked immunosorbent assay.

Experiment [4] addresses T4, GST-Caprin2(927–1128) (human (HeLa cell cDNA library)) (UniProt Q6IMN6).
T4 sequence: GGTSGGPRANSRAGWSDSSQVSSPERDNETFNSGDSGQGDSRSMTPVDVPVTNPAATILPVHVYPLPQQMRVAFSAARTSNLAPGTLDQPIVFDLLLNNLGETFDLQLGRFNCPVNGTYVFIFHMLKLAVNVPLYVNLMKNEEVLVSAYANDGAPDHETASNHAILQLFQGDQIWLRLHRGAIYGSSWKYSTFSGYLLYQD
The experiment is described as above.

Experiment [5] addresses T2, GST-Caprin2(245–1128) (human (HeLa cell cDNA library)). Described as above.
In experiment [6] the target is Gal4DB-Cpn1027(210–527) (Chlamydia pneumoniae AR39). Briefly: two-hybrid; ProQuest system, MaV203 yeast; bait in pDBLeu (GAL4 DBD), prey in pEXP-AD502 (GAL4 AD); growth on -LW, -LWH with 50 mM 3AT, and -LWU.
For experiment [7], the target named is GST-Cpn1027(210–365) (Chlamydia pneumoniae AR39). Briefly: pull-down; GST fusion immobilised on glutathione-agarose beads, incubated overnight at 4°C with lysates of transfected HEK 293T cells (1% Triton X-100 buffer); washed three times with PBS; Western blot; only the target purified.
For experiment [8], the target named is GST-Cpn1027(366–527) (Chlamydia pneumoniae AR39). The description is as above.
The target in experiment [9] is GST-Cpn1027(1–209) (Chlamydia pneumoniae AR39). Described as above.
For experiment [10], the target named is GST-Cpn1027(210–527) (Chlamydia pneumoniae AR39). Described as above.

With “FLAG-Cpn1027(210–527) (Chlamydia pneumoniae AR39) (domain or fragment)”, the binding result in experiment [1] is “binds”.
In the case of RFP-Cpn1027 (Chlamydia pneumoniae AR39), in [2], the binding entry was “binds”.
“purified Cpn1027(210–527) protein (no GST tag) (Chlamydia pneumoniae AR39) (domain or fragment)”: the binding entry is listed as “no binding (tested: 1 μg per well)” in [3], “binds” in experiment [4] and “binds” in experiment [5].

B1: Gal4AD-Caprin2(245–1128) (domain or fragment, UniProt Q6IMN6 245-1127)
chain: T1 sequence
Turning to B1, the binding entry in experiment [6] is reported as “binds”.

B2: RFP-Caprin2(245–1128) (domain or fragment, UniProt Q6IMN6 245-1127)
chain: T1 sequence
As for B2, the binding result in experiment [7] is recorded as “no binding”; in experiment [8], “binds”; in experiment [9] it was “no binding”; in experiment [10], “binds”.

The record behind these values is PMC4440618.
